Results on one sequence are retold here after paper PMC5996148.

Holding throughout (assay): protein microarray (ProtoArray v5.0), streptavidin-Alexa Fluor 647
Holding throughout (conditions): 3'-biotin; 20 mM Tris (pH 7.5), 5 mM MgCl2, 100 mM KCl, 0.1% Tween-20, A/T-rich and random oligonucleotide blockers; temperature not stated; high values mean tight binding

One assay has as its target T1, TSC22D1 (UniProt Q15714).
T1 sequence: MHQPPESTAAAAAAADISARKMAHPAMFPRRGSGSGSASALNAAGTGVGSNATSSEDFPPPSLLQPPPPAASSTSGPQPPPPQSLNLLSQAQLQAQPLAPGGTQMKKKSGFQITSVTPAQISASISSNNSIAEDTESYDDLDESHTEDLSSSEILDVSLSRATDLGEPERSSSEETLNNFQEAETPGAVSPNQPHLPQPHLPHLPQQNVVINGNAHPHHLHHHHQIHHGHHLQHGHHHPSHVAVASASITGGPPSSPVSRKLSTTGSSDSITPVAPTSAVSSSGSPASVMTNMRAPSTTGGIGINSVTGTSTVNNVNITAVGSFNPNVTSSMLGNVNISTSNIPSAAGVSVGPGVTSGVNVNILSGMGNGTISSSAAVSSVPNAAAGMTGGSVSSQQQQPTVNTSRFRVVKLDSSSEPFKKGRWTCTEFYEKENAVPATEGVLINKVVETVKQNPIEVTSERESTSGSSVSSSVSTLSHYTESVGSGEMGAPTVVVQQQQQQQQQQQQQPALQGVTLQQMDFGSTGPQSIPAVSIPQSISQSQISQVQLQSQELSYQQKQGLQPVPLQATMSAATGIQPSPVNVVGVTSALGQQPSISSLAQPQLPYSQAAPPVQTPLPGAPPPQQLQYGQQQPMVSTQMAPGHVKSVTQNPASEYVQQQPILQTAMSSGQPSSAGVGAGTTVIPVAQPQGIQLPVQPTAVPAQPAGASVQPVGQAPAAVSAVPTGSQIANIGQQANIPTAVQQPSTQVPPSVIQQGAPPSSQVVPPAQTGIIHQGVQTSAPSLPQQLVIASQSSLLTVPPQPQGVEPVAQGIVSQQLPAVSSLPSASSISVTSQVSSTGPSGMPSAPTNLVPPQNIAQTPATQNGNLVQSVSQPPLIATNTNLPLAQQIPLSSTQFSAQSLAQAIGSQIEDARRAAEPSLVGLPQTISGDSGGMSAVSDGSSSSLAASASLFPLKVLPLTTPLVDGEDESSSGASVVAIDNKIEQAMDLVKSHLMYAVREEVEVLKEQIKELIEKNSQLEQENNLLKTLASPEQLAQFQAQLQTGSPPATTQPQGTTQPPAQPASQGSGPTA

Another assay relates to TSC22D3 (human).
The test system of another assay is TSNAXIP1 (human).
The subject of the next assay is TSPAN12 (human).
The test system of a further assay is TSPAN17 (human).
Another assay addresses T2, TSPAN5 (UniProt P62079).
T2 sequence: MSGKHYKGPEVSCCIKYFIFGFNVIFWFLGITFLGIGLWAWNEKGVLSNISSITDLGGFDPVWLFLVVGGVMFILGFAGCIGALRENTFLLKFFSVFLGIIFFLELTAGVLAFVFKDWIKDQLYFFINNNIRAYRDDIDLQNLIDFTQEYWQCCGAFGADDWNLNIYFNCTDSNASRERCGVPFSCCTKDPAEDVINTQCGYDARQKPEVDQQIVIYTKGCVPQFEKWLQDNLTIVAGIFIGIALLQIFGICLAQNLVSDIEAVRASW

Another assay concerns TSPY2 (human).
For another assay, the system named is TSR2 (human).
A further assay deals with TSSK3 (human).
In another assay the test system is TSTA3 (human).

Some of the results follow. For some of these results: The source does not settle which construct or isoform was used.

For “GGGAGGCTGAGGCAGG [G4-1 biotinylated (PQS2)]”, the binding signal with TSC22D1 was -0.335 z-score; in the assay with TSC22D3 (human), -0.347 z-score; in the assay on TSNAXIP1 (human), -0.351 z-score; in the assay on TSPAN12 (human), -0.341 z-score; in the assay with TSPAN17 (human), -0.326 z-score; in the assay with TSPAN5, -0.33 z-score. Further, the binding signal with TSPY2 (human) was -0.312 z-score; with TSR2 (human) it was -0.329 z-score; with TSSK3 (human), -0.313 z-score; in the assay with TSTA3 (human) it was -0.311 z-score.
